In article PMC10164956:
Like-named read-outs stand apart in the source and are kept apart here. These are yes or no findings as the source states them, for the method shown. In cells and extracts the contact can be indirect. These calls come from enrichment with a bait or labelling near it, and not all partners need be listed. For some assays here: A no says only that the protein was not detected with the bait. Values belong to the molecule of their own block, whether it stands above or below them.

Amino acid sequences for entries named in this document (tags omitted).
UniProt O35730: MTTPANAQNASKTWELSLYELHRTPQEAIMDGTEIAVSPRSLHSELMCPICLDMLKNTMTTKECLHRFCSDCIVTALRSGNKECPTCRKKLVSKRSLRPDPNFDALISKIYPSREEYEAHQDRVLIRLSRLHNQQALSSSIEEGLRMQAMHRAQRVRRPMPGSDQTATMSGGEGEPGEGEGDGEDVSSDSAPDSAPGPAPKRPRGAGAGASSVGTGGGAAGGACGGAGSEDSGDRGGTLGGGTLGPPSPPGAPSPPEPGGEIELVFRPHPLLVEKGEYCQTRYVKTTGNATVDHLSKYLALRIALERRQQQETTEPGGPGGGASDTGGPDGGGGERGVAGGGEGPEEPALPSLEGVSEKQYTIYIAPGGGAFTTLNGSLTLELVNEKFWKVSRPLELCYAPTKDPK
UniProt Q8BX22: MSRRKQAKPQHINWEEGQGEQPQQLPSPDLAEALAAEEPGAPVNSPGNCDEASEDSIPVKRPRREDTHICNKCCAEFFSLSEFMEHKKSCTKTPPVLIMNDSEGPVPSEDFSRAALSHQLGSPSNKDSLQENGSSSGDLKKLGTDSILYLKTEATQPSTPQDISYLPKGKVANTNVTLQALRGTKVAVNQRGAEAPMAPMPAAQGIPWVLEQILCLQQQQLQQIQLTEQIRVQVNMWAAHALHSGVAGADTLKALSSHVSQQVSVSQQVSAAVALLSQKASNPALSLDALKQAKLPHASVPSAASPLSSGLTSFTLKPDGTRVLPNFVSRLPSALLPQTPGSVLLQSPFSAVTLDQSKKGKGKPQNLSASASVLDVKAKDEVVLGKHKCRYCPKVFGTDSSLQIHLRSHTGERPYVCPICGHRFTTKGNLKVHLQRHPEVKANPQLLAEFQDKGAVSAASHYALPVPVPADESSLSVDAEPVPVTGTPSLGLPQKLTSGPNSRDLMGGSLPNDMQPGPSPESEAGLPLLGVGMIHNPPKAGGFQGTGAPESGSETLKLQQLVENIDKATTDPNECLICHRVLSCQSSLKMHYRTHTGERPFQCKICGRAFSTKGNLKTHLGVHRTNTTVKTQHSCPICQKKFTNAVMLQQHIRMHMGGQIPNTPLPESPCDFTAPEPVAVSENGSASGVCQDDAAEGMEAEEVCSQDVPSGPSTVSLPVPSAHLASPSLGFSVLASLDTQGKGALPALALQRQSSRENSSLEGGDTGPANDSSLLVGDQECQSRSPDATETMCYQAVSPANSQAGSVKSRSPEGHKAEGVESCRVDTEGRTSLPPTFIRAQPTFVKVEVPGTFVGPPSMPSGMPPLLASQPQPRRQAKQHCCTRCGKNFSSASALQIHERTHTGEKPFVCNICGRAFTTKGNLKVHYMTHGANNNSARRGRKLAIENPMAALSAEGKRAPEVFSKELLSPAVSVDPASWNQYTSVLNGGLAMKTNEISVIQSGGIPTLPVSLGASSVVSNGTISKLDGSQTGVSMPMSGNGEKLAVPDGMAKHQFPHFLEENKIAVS

How the values were obtained:
Experiment in all cases: affinity purification with mass spectrometry; anti-BMI1 antibody against IgG control on lysate of mouse undifferentiated spermatogonia; SDS-PAGE, silver staining, in-gel trypsin digestion, LC-ESI-Q-TOF; fold-change ≥2 and at least two identified peptides
[1] = target: T1, B cell-specific Moloney murine leukemia virus integration site 1 (BMI1) (mouse (endogenous in undifferentiated spermatogonia)) (UniProt P25916)
T1 sequence: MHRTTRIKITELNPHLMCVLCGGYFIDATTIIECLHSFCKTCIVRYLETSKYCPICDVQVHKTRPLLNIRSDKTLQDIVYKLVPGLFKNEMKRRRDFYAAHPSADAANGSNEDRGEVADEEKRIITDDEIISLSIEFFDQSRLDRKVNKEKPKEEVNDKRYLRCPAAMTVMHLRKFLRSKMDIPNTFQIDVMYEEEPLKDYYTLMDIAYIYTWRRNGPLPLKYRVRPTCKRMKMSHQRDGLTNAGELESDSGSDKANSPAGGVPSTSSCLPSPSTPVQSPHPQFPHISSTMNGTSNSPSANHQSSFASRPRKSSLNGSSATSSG

[2] = substrate: T2, B cell-specific Moloney murine leukemia virus integration site 1 (BMI1) (mouse (endogenous in undifferentiated spermatogonia)) (UniProt P25916); remark: listed apart in the source
T2 sequence: T1 sequence

[3] = target: T3, B cell-specific Moloney murine leukemia virus integration site 1 (BMI1) (mouse (endogenous in undifferentiated spermatogonia)), P25916; conditions: remark: other sources report otherwise
T3 chain: T1 sequence

Molecule: RING1A (from UniProt O35730 1-406)
- binding [1]: binds

B1: PHC1 (protein, UniProt Q64028 1-1010)
chain: METESEQNSSSTNGSSSSGASSRPQIAQMSLYERQAVQALQALQRQPNAAQYFHQFMLQQQLSNAQLHSLAAVQQATIAASRQASSPNSSTAQQQTATTQASMNLATTSAAQLISRSQSVSSPSATTLTQSVLLGNTTSPPLNQSQAQMYLRPQLGNLLQVNRTLGRNVPLASQLILMPNGAVAAVQQEVPPAQSPGVHADADQVQNLAVRNQQASAQGPQMPGSTQKAIPPGASPVSGLSQTSSQALAVAQASSGASGQSLNLSQAGGGSGNSLPGSMGPGGGGQAPGGLGQLPSSGLTGGSCPRKGTGVVQPLPAAQTVTVSQGSQTEAESAAAKKAEADGSGQQSVGMNLTRTATPAPSQTLISSATYTQIQPHSLIQQQQQIHLQQKQVVIQQQIAIHHQQQFQHRQSQLLHTATHLQLAQQQQQQQQQQQQQQQQQQQQQQGTTLTAPQPPQVPPTQQVPPSQSQQQAQTLVVQPMLQSSPLTLPPEPTSKPPIPIQSKPPVAPIKPPQLGAAKMSATQQPPPHIPVQVVGTRQPGSAQAQALGLAQLAAAVPTPRGITGAVQPGQAHLASSPPSSQAAPGALQECPPALAAGMTLAPVQGTAHVVKGGPTASSPVVAQVPAAFYMQSVHLPGKAQTLAVKRKAESEEERDDLSALASVLPTKASPAAESPKVIEEKNSLGEKAEPVASLNANPPNSDLVALAPTPSAPPPTLALVSRQMGDSKPPQAIVKPQILTHIIEGFVIQEGAEPFPVGCSQFLKETKKPLQAGLPTGLNESQPSGPLGGDSPSVELEKKANLLKCEYCGKYAPAEQFRGSKRFCSMTCAKRYNVSCSHQFRLKRKKMKEFQEASYARVRRRGPRRSSSDIARAKIQGKRHRGQEDSSRGSDNSSYDEALSPTSPGPLSVRAGHGERDLGNTITTPSTPELQGINPVFLSSNPSQWSVEEVYEFIASLQGCQEIAEEFRSQEIDGQALLLLKEEHLMSAMNIKLGPALKICAKINVLKET
- binding [2]: binds

B3: RYBP, Q8CCI5 1-228 (protein)
chain: MTMGDKKSPTRPKRQAKPAADEGFWDCSVCTFRNSAEAFKCSICDVRKGTSTRKPRINSQLVAQQVAQQYATPPPPKKEKKEKVEKPDKEKPEKDKDISPSVTKKNTNKKTKPKSDILKDPPSEANSIQSANATTKTSETNHTSRPRLKNVDRSTAQQLAVTVGNVTVIITDFKEKTRSSSTSSSTVTSSAGSEQQNQSSSGSESTDKGSSRSSTPKGDMSAVNDESF
- binding [3]: no binding

Other lines, results leading:

- binding [1]: binds
Molecule: Sal-like 4 (SALL4) (from UniProt Q8BX22 1-1067)

- binding [2]: no binding
B2: YAF2 (protein, UniProt Q99LW6 1-179)
chain: MGDKKSPTRPKRQPKPASDEGYWDCSVCTFRNSAEAFKCMMCDVRKGTSTRKPRPVSQLVAQQVTQQFVPPTQSKKEKKDRVEKDKSEKEAASKKNCHKKTRPRLKNVDRSSAQHLEVTVGDLTVIITDFKEKAKSAPASSAAGDQHSQGSCSSDSTERGVSRSSSPRGEASSLNGESH
